Results published in patent publication US20090321255A1, “Drug-meter: Multiwell membrane-based potentiometric sensor for high throughput tests of drugs” (priority 2008, published 2009).
Where a name gives a salt, the structure may show the parent alone.

Experiment: Transmembrane potential calibration of multiwell biomimetic membrane sensor in buffer
Format: physicochemical
Excerpt: Multiwell plates used were commercial Millipore MultiScreen VM 0.05μ plates with nitrocellulose ultrafilters located at the base of each of the 96 wells of a plate. Though the number of the wells in the examples given in the disclosure is 96, as it is in the usual multiwell plates, it is not limited by this number and can be any from 2 and above.
All filters were impregnated by isopropyl myristate or some other lipid-like substances, like long chain fatty acids, their methyl and ethyl-esters, fats, etc. After impregnation the membranes should be translucent.
Each well requires as little as 200 μl of test solution. The small well's volume and the numerous wells (96) make the plates highly suitable as a part of the drug sensor, both for pharmaceutical testing in a buffer as well as for testing in biological fluids.
The tray cover can be is used as a base tray to put the reference buffer solution. Two Ag/AgCl electrodes with the salt bridges were used to measure transmembrane potential with common multimeter. It is possible to use one Ag/AgCl element as a measuring electrode and move it from one well to another. Another option is to have different measuring electrodes in different wells and separately to collect signals from each of them separately.
Kinetics of the process was registered with electrochemical station GPES. 5 mM Potassium Dihydrogen Phosphate solution in water was used as a buffer, filling the tray with the volume ˜30 ml. Known concentration of a drug (usually near 10^−5 M) could be added in the buffer as the reference. Membrane resistance after impregnation was several megaohms and usually decreases after modification of the membrane with drugs. Resistance is much lower when the membrane is broken. In this case the measurements can be conducted in other wells with the same test solution.

Row | Structure (SMILES) | slope of transmembrane potential versus Log (concentration) (buffer, concentrations higher than 10^−4 M) | slope of calibration curve (buffer pH 4) [mV] | slope of calibration curve (buffer pH 7.4) [mV] | slope of calibration curve (buffer pH 8) [mV per decade]
1 | CC(C)NCC(O)COc1cccc2ccccc12 (stereo not shown) [Propranolol Hydrochloride] | ~58 mV per ten times concentration changes |  |  | 
2 | CCNC(C)Cc1cccc(C(F)(F)F)c1.Cl (racemic) [Fenfluramine Hydrochloride, (+/−)-N-ethyl-α-methyl-m-(trifluoromethyl) phenethylamine HCl] |  | 36.1 | 48.9 | 56.4
